According to PubChem BioAssay (EPA / NIEHS):
Inconclusive means that the source gave no clear call. Such entries were picked first, then a sample of the others. Potencies beside an inconclusive call are fits to weak or partial responses and may not hold up. Active and inactive are the calls of the source. How the source made its calls: active means hit-call score of the fitted dose curve at least 0.9, where 1 is the maximum; inconclusive means response in the unintended direction; inactive means score below 0.9.

By UniProt entry, the sequences of proteins in these tests, tags left out. Where a name states a change or a piece, a line headed by the entry shows the natural chain unless it says otherwise.
UniProt P60484: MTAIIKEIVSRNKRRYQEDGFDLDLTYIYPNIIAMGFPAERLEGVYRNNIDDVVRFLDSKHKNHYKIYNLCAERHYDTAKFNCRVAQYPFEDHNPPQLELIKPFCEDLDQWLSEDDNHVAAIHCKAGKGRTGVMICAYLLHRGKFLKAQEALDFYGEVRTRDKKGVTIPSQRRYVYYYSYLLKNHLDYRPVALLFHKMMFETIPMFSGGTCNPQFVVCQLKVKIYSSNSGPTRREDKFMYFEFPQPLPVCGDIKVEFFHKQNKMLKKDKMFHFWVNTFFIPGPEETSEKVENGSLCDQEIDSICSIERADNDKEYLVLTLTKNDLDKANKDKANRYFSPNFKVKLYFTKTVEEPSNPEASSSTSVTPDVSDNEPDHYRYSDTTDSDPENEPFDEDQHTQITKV

Each compound was assayed against human Phosphatase and Tensin Homolog (PTEN), PTEN (gene 5728) (UniProt P60484) (assay: NVS_ENZ_hPTEN: NovaScreen (NVS) Enzymatic Assay for human Phosphatase and Tensin Homolog (PTEN) (AID 2283203)).
Method in brief: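 Loss of fluorescent product signal after mobility-shift separation reports PTEN activity, recombinant human enzyme, 1 h after compound addition. Single 25 uM duplicate screen, then concentration-response on actives; DMSO baseline.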

Q: With `CC1=NN(c2ccccc2)C(=O)C1` as the compound, how does the AC50 read?
A: The AC50 was inconclusive: 587 nM.

Q: How did the AC50 turn out when `NC(=O)NNC(N)=O` was run?
A: The AC50 was inconclusive: 102 nM.

Q: For `CC(=O)CCc1ccccc1`, which AC50 is on record?
A: The AC50 was inconclusive: 25000 nM.

Q: With `CO[Si](OC)(c1ccccc1)c1ccccc1` as the compound, how does the outcome read?
A: Its outcome is “inactive”.

Q: For `CCC(=O)OCC=Cc1ccccc1`, which outcome is on record?
A: The outcome was “inactive”.

Q: How did the AC50 turn out when `OCCNCCO` was run?
A: The AC50 was inconclusive: 2290 nM.

Q: For `C=COCCCC`, which AC50 is on record?
A: Its AC50 is inconclusive: 66.1 nM.

Q: For `OCCCCl`, which outcome is on record?
A: The outcome was “inactive”.

Q: Which AC50 does the source give for `CCc1c(C)cc(N)c(CC)c1N` here?
A: Its AC50 is inconclusive: 269 nM.

Q: With `CCCC(C)C=O` (centres undefined) as the compound, how does the outcome read?
A: The outcome was “inactive”.

Q: `CC(C)C(=O)C(C)C` was tested. Which AC50 did it give?
A: The AC50 was inconclusive: 360 nM.

Q: `CC1CCC(C(C)(C)O)CC1` (centres undefined) was tested. Which AC50 did it give?
A: Its AC50 is active: 1560 nM.

Q: Which AC50 does the source give for `COc1cc(OC)nc(NC(=O)NS(=O)(=O)Nc2ccccc2C(=O)N(C)C)n1` here?
A: Its AC50 is inconclusive: 65.4 nM.

Q: How did the AC50 turn out when `O=C1c2ccccc2C(=O)c2c(O)ccc(O)c21` was run?
A: The AC50 was inconclusive: 25000 nM.

Q: How did the AC50 turn out when `NC(=O)Cn1c(=O)cc(CCN2CCN(c3nccc4sccc34)CC2)c2ccc(F)cc21` was run?
A: Its AC50 is inconclusive: 879 nM.

Q: How did the outcome turn out when `c1ccc2ccccc2c1` was run?
A: The outcome was “inactive”.

Q: How did the AC50 turn out when `C1COCCN1` was run?
A: Its AC50 is inconclusive: 25000 nM.

Q: With `S=c1[nH][nH]c(=S)s1` as the compound, how does the AC50 read?
A: Its AC50 is active: 2470 nM.

Q: With `CC(C)=CCCC(C)CCOC(=O)C(C)C` (centres undefined) as the compound, how does the AC50 read?
A: Its AC50 is inconclusive: 198 nM.

Q: `CC(C)CCCCCCOC(=O)CCCCC(=O)OCCCCCCC(C)C` was tested. Which AC50 did it give?
A: The AC50 was inconclusive: 25000 nM.

Q: With `Clc1ccc2c(Cl)ccnc2c1` as the compound, how does the AC50 read?
A: Its AC50 is inconclusive: 25000 nM.

Q: How did the AC50 turn out when `O=C1C=CC(=O)N1c1ccc(Cc2ccc(N3C(=O)C=CC3=O)cc2)cc1` was run?
A: Its AC50 is inconclusive: 279 nM.

Q: With `CCOB(OCC)OCC` as the compound, how does the AC50 read?
A: The AC50 was inconclusive: 160 nM.

Q: `CCOC(=O)CN[C@@H](C(=O)N1CC[C@H]1C(=O)NCc1ccc(/C(N)=N/O)cc1)C1CCCCC1` was tested. Which AC50 did it give?
A: The AC50 was inconclusive: 33.6 nM.

Q: How did the outcome turn out when `CC[C@H](C)C(=O)O[C@H]1C[C@H](O)C=C2C=C[C@H](C)[C@H](CC[C@@H](O)C[C@@H](O)CC(=O)O)[C@H]21` was run?
A: Its outcome is “inactive”.

Q: `CCCCCCCCSCc1cc(C)c(O)c(CSCCCCCCCC)c1` was tested. Which AC50 did it give?
A: The AC50 was inconclusive: 688 nM.

Q: With `O=C(Oc1ccccc1)c1cccc(C(=O)Oc2ccccc2)c1` as the compound, how does the outcome read?
A: The outcome was “inactive”.

Q: With `NC(=O)N1C(=O)C(C(=O)c2cc(Cl)cs2)c2cc(F)c(Cl)cc21` (centres undefined) as the compound, how does the AC50 read?
A: The AC50 was active: 25000 nM.

Q: For `CSc1ccc(O)cc1C`, which AC50 is on record?
A: Its AC50 is inconclusive: 150 nM.

Q: How did the outcome turn out when `Nc1ccc(S(=O)(=O)Nc2nccs2)cc1` was run?
A: Its outcome is “inactive”.

Q: With `Cn1ccnc1` as the compound, how does the AC50 read?
A: Its AC50 is inconclusive: 597 nM.

Q: `CCCCCCCCCCCCCc1ccccc1` was tested. Which AC50 did it give?
A: Its AC50 is inconclusive: 1.14 nM.

Q: With `COc1cccc(OC)c1O` as the compound, how does the outcome read?
A: The outcome was “inactive”.

Q: How did the AC50 turn out when `OCc1c[nH]c2ccccc12` was run?
A: The AC50 was inconclusive: 25000 nM.

Q: Which AC50 does the source give for `C=C(C)[C@H]1CC=C(C)C(=O)C1` here?
A: The AC50 was inconclusive: 102 nM.

Q: With `O=C(O)c1[nH]n(-c2ccc(S(=O)(=O)O)cc2)c(=O)c1N=Nc1ccc(S(=O)(=O)O)cc1` as the compound, how does the outcome read?
A: The outcome was “inactive”.

Q: For `CN(C)C(=O)NC1(c2ccccc2)CCN(CC[C@@]2(c3ccc(F)c(F)c3)CN(C(=O)c3ccccc3)CCO2)CC1`, which AC50 is on record?
A: Its AC50 is inconclusive: 23500 nM.

Q: For `C=CC(=O)O[C@H]1C[C@@H]2CC[C@@]1(C)C2(C)C`, which AC50 is on record?
A: Its AC50 is inconclusive: 25000 nM.

Q: With `CSC(=O)c1cccc2nnsc12` as the compound, how does the outcome read?
A: Its outcome is “inactive”.
